Earlier results in US12433889B2 (priority 2021, dated 2025).
The name of at least one read-out is uncertain.

Conditions: BCS class II; cited from earlier work

## CC(C)/N=c1\cc2n(-c3ccc(Cl)cc3)c3ccccc3nc-2cc1Nc1ccc(Cl)cc1 [Clofazimine, clofazimine]
  membrane permeability: high membrane permeability
